From PMC10729982
No constants are given. Whether binding was seen depends on the method and setting. Binding can be weak; no strength is given. For part of these data: Tags and fused reporters may be left off the sequences shown.

Amino acid sequences for entries named in this document (tags omitted). A change or cut given only in a name is not applied to a line headed by its entry.
UniProt Q27309: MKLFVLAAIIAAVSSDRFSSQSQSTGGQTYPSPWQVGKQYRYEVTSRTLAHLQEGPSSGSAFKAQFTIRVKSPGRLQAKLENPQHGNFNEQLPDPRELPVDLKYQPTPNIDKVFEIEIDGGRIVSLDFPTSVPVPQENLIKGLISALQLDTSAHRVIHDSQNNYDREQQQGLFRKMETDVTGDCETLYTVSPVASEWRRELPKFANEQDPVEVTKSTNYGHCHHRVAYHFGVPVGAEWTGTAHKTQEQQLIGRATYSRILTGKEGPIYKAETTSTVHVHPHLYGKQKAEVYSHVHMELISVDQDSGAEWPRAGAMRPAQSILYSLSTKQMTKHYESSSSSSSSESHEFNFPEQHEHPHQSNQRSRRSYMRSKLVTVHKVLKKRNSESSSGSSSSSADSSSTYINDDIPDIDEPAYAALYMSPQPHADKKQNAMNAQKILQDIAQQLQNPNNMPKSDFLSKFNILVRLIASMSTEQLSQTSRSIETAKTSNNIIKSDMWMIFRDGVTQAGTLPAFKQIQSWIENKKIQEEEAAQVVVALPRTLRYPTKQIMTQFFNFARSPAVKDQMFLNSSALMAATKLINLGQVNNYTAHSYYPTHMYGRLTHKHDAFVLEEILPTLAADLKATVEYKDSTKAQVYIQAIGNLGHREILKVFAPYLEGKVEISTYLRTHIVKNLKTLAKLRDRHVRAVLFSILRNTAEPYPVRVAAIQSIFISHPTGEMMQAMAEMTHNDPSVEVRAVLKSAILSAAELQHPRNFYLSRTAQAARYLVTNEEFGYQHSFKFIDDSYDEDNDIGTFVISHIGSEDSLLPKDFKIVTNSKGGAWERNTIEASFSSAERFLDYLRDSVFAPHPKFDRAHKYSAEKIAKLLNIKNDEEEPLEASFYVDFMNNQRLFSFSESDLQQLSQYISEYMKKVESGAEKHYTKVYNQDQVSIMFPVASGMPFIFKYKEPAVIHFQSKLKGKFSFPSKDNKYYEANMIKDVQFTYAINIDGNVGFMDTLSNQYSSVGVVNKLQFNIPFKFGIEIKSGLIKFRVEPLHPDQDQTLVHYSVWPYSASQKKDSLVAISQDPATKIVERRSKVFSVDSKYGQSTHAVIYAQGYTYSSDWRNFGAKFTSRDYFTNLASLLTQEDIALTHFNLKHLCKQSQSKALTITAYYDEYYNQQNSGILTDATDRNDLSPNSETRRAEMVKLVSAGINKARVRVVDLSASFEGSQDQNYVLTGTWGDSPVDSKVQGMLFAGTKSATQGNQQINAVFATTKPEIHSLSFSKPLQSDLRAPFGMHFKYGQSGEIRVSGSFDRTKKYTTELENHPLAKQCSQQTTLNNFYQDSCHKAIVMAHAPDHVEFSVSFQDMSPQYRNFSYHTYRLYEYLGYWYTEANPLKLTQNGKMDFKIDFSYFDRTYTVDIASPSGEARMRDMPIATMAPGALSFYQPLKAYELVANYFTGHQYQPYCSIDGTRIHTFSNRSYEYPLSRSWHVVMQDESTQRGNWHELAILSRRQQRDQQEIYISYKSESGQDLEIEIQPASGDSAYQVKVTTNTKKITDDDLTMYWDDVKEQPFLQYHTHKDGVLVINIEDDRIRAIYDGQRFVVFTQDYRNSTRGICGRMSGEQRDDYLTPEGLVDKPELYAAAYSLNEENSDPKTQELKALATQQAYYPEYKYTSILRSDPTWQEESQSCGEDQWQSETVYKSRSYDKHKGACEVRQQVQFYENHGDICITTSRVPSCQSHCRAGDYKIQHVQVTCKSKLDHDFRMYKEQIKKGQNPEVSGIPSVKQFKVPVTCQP

B1: N. bombycis spore wall protein SWP12, yeast two-hybrid fusion (protein, UniProt B3STP6 1-228)
chain: MKDFKKKIIMKISRIEYKHTAFSAEYKDVEKVYKKLRDNMDKVATGINNLMTYEHGGSAMKKIYHGLSMVSSASRMNYFSDADIFEGFARINKDLTDSDLDEGVREVGRKTAEAYENISKAKEKFNEQCGREMEVLMSMKKRAETTDKERENAKIYRYDLEKAKQSNNPEDQEEVDRLSELFENSQTRTIEMMRDFIGADGLQGVLTRVRDLNIEFHQESVKALERTK
B2: SWP12-MBP (protein, UniProt B3STP6 1-228)
chain: B1 chain
B3: SWP30-MBP (protein, UniProt B3STN5 20-278)
chain: EPTRHHDRYAYIERVVCDVNFPDLLCRRKSHAIAYRMFRLIPVRNPNYEISTDYVSHEFNTTRVRSESEKYLCSSYGPNGYVSGDVFILRNALNKLFDHHEIEELAYELFIRLVASFLDSCSYPKSFEHNLVRCRSEDEELCTSPLAAFIKLVSRRSTRDVVLIVLNDFSHYLKLEEGHGFSKDRKSNQCVKFTQLYFYYLSAAVNFIERKISAFTLIPVMDDRRIASVSAIMISSKFANTTGNYVINATSFMDNTIPF
B4: N. bombycis spore wall protein SWP30, yeast two-hybrid fusion (protein, UniProt B3STN5 1-278)
chain: MNILLATASFVLSLGFVKAEPTRHHDRYAYIERVVCDVNFPDLLCRRKSHAIAYRMFRLIPVRNPNYEISTDYVSHEFNTTRVRSESEKYLCSSYGPNGYVSGDVFILRNALNKLFDHHEIEELAYELFIRLVASFLDSCSYPKSFEHNLVRCRSEDEELCTSPLAAFIKLVSRRSTRDVVLIVLNDFSHYLKLEEGHGFSKDRKSNQCVKFTQLYFYYLSAAVNFIERKISAFTLIPVMDDRRIASVSAIMISSKFANTTGNYVINATSFMDNTIPF
B5: N. bombycis spore wall protein SWP26, yeast two-hybrid fusion (protein, UniProt B9UJ97 1-223)
chain: MNIIIFSLMTISFLRARFGYEKEILPMMDTASDKSYLQGPPNPYTATVNPLERLISDTYLKVTGILSHYFAYYQENVAEFRRWFQSIYYEMDDDTRKKILNELNLNLRSMDDLENFWTETQGAILKGNLLELSDLLKGLEEAVNAKTHMSSEANNDLIKSKINFKDKAVDFLNQLNKIYGFLDLGLSYHTSNRFTDVHAMFLDAAASKKKLDKSFESISGIDD
B6: SWP26-MBP (protein, UniProt B9UJ97 17-223)
chain: RFGYEKEILPMMDTASDKSYLQGPPNPYTATVNPLERLISDTYLKVTGILSHYFAYYQENVAEFRRWFQSIYYEMDDDTRKKILNELNLNLRSMDDLENFWTETQGAILKGNLLELSDLLKGLEEAVNAKTHMSSEANNDLIKSKINFKDKAVDFLNQLNKIYGFLDLGLSYHTSNRFTDVHAMFLDAAASKKKLDKSFESISGIDD

Legend:
[1] = biological target: T1, SWP26, native on the surface of N. bombycis spores (N. bombycis (endogenous on spores)) (UniProt B9UJ97); assay: binding to spores after antibody blocking, western blot; spores incubated with antibodies (anti-SWP7, anti-SWP12, anti-SWP26, anti-SWP30) at 4°C for 12 h, then with female hemolymph (BmVg) for 2 h at 4°C; washed three times with PBST; BmVg adhering to spores detected by western blot
T1 sequence: B6 chain

[2] = biological target: T2, SWP12, native on the surface of N. bombycis spores (N. bombycis (endogenous on spores)) (UniProt B3STP6); assay: as above
T2 sequence: B1 chain

[3] = biological target: T3, SWP30, native on the surface of N. bombycis spores (N. bombycis (endogenous on spores)) (UniProt B3STN5); assay: as above
T3 sequence: B3 chain

[4] = biological target: BmVg-VWD (von Willebrand domain of B. mori vitellogenin), yeast two-hybrid fusion (B. mori) (UniProt Q27309); assay: two-hybrid; bait (pGBKT7) and prey (pGADT7) plasmids co-transformed into yeast Y2HGold; screened on SD/-Ade/-His/-Leu/-Trp with X-α-gal (QDO) plates; which partner was bait is not stated
[5] = biological target: His-VWD (His-tagged von Willebrand domain of B. mori vitellogenin) (B. mori) (UniProt Q27309); assay: pull-down; His-VWD or His-DUF1943 incubated with MBP and SWPs-MBP proteins, Dynabeads His-Tag Isolation & Pulldown kit; western blot with anti-MBP antibody; both purified

Row | Molecule | binding [4] | binding [5] | further results
1 | B. mori vitellogenin (BmVg), endogenous in the hemolymph of female pupae (from UniProt Q27309) |  |  | binding [1]: binds; binding [2]: binds; binding [3]: binds
2 | B1 | binds |  | 
3 | B2 |  | binds | 
4 | B3 |  | binds | 
5 | B4 | binds |  | 
6 | B5 | binds |  | 
7 | B6 |  | binds | 
